# Some of these results come from one statement about several compounds together.
# Tested on: αSMA in pellet-cultured iPSC-MSCs
# Test: Immunofluorescent staining of αSMA
# Format: cell-based, human
# Conditions: 10 ng/mL in ChBM, Day 3 (FIG. 2D)
substance,measurement,value
TGFβ1: pleomorphic growth factor commonly used to induce MSC chondrogenesis (R&D Systems),"αSMA expression, quantitative fluorescent intensity compared to ChBM",up to 3 fold

# From patent US20220298483A1, “METHOD AND COMPOSITION FOR CHONDROGENESIS” (National Health Research Institutes, priority 2021, published 2022)
